Experimental data reported in patent US20070238146A1, “Kinetic metabolic assay for antifungal susceptibility testing” (priority 2006, published 2007).
Converted amounts (≈) assume the structure as drawn.

Test system: C. albicans CA-1
Test: standard broth dilution method, AmB MIC
Type: cell-based
Conditions: Candida albicans, CA1, strain CA-1
Description: C. albicans strain and medium. C. albicans CA-1 isolate obtained from the culture collection of Diane Brawner (Microbiology Department, Montana State University)(14). The strain was stored at −80° C. Planktonic cells were cultured in 2% YEPD medium (2% glucose, 1% bacto yeast extract, and 2% bacto peptone). The solid agar medium for the CFU assay was 1% glucose, 0.5% bacto yeast extract, 2% bacto agar, 0.1% ammonium sulfate dissolved in 20% tap water and 80% D.I. water.
AmB treatment. AmB was from Biosource International Inc. (Fungizone with 0.00205% sodium deoxycholate solubilizing agent). A standard broth dilution method was used to assess the AmB MlC of CA-1, with ATCC 24433 used as a reference strain (32). AmB treatment of planktonic cells and shear-removed biofilm was preformed in 1.5-ml centrifuge tubes. The tubes contained a total working volume of 450 μl. AmB dissolved in 200 μl of 0.1 M PBS (pH 7.0), and cells resuspended in 250 μl of PBS adjusted to an optical density of 0.05 (A660) were added to the 1.5-ml tube. After more than 10 preliminary experiments, the time between recovery of the shear-removed biofilm in the petri dish and exposure to AmB was reduced to approximately 5 min. The positive controls had no AmB, and the negative controls had no cells. […] This enabled recording of absorbance data for the metabolic indicator in real time without perturbing the well contents. […]

MIC: 0.5 µg/mL (≈ 0.541 µM)
SMILES: C[C@@H]1[C@H](O)[C@@H](C)/C=C/C=C/C=C/C=C/C=C/C=C/C=C/[C@H](O[C@@H]2O[C@H](C)[C@@H](O)[C@H](N)[C@@H]2O)C[C@@H]2O[C@](O)(C[C@@H](O)C[C@@H](O)[C@H](O)CC[C@@H](O)C[C@@H](O)CC(=O)O[C@H]1C)C[C@H](O)[C@H]2C(=O)O [AmB, amphotericin B]
